For assay [1], the target named is PHD2 (human (endogenous in A2058)) (UniProt Q9GZT9). Nature of the assay: co-IP; endogenous proteins of A2058 cell lysates, cells treated with ADI for various times (also with the antioxidant TEMPO, which inhibited the ADI-induced interaction); antibody and protein A sepharose, Western blot.
The target of assay [2] is HDAC2 (human (endogenous in A2058)) (UniProt Q92769). The assay is described as above.
In assay [3] the target is HDAC2-Flag (UniProt Q92769). As to the kind of experiment: co-IP; 293 cells cotransfected with recombinants encoding HDAC2-Flag and PHD2-GFP.

The chains behind the UniProt entries cited, without tags or fusion partners.
UniProt Q9GZT9: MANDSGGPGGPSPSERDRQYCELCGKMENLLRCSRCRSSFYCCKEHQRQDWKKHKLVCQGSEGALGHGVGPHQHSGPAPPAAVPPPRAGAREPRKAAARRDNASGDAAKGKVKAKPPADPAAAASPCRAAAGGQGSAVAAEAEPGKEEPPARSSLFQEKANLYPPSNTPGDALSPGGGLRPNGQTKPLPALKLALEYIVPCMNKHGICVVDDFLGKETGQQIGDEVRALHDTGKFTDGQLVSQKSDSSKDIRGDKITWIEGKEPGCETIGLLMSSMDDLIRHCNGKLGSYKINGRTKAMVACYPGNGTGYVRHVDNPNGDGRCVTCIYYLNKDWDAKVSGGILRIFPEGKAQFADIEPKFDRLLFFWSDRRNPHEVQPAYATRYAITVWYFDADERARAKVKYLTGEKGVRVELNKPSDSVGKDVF
UniProt Q92769: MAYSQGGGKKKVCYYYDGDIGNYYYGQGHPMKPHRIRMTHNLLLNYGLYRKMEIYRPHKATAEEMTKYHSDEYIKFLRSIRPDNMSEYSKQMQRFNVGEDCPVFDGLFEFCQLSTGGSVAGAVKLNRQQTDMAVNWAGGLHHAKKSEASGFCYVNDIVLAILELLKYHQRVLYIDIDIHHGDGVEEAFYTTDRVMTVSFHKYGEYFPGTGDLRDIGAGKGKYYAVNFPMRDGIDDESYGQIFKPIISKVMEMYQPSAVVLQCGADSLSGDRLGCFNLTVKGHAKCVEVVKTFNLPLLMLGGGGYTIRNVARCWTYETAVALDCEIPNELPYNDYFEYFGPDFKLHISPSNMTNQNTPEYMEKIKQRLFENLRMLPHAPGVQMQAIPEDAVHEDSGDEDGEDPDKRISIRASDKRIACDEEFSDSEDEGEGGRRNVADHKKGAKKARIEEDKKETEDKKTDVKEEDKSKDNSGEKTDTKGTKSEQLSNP
UniProt Q9UGP4: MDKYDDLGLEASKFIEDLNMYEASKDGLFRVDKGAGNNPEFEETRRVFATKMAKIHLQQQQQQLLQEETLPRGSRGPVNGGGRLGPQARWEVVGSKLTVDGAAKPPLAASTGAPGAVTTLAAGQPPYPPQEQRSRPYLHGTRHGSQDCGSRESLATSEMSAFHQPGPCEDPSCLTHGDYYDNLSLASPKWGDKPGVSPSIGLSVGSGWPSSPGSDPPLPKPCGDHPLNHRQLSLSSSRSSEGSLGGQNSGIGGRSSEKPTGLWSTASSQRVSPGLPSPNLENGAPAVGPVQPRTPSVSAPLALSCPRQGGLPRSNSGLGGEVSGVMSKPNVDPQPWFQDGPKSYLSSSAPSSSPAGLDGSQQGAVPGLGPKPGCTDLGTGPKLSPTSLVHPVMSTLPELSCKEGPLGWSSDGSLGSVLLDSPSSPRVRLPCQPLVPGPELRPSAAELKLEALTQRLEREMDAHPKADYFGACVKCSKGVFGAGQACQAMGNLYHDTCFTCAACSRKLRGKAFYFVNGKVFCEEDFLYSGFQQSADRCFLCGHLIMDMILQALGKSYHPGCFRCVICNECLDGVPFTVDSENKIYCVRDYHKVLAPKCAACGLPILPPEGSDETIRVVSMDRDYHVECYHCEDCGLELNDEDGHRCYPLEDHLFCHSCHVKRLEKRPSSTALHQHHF
UniProt Q15365: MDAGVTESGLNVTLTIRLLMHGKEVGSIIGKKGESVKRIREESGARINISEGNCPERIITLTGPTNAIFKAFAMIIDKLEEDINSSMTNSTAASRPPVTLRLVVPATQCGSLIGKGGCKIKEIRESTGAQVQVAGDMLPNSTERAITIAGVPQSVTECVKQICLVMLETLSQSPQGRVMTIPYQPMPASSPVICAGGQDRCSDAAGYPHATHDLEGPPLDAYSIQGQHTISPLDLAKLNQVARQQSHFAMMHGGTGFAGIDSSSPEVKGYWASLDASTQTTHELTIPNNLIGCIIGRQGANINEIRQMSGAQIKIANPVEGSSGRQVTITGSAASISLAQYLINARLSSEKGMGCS

These are yes or no findings as the source states them, for the method shown. In cells and extracts the contact can be indirect. Some binding calls cover weakened binding; strength is not graded here.

Consider “HDAC2 (from UniProt Q92769 1-488) (enzyme)”, for which, in assay [1], the binding entry is given as “binds”.

Consider LIMD1 (from UniProt Q9UGP4 1-676), for which, in assay [1], the binding result is recorded as “binds”.

In the case of PCBP1 (from UniProt Q15365 1-356), the binding result in assay [1] was “binds”.

Consider “PHD2 (from UniProt Q9GZT9 1-426) (enzyme)”, for which, in assay [2], the binding entry is “binds”.

Regarding “PHD2-GFP (from UniProt Q9GZT9 1-426) (enzyme)”, in assay [3], the binding entry was “binds”.
